These are yes or no findings as the source states them, for the method shown. In cells and extracts the contact can be indirect. Some binding calls cover weakened binding; strength is not graded here. For some assays here: Where a sequence is shown, tags or fusion partners need not be part of it.
Legend:
[1] = biological target: T1, endogenous WISP1 (mouse (endogenous in MEF)) (UniProt O54775); test: co-IP; untransfected MEF cell lysates; IP with anti-WISP1 or anti-PPARγ, IB with anti-PPARγ or anti-WISP1; IgG immunoprecipitations as controls
T1 sequence: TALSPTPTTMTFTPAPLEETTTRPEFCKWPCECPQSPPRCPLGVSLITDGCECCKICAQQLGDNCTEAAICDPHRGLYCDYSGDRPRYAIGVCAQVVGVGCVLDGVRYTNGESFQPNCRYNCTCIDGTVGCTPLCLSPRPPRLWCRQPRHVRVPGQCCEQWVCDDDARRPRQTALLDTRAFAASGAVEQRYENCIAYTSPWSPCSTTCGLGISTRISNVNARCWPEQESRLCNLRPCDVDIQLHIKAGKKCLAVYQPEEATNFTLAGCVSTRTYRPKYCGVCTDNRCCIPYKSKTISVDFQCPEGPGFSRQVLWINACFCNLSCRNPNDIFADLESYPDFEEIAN

By UniProt entry, the sequences of proteins in these tests, tags left out.
UniProt P37238: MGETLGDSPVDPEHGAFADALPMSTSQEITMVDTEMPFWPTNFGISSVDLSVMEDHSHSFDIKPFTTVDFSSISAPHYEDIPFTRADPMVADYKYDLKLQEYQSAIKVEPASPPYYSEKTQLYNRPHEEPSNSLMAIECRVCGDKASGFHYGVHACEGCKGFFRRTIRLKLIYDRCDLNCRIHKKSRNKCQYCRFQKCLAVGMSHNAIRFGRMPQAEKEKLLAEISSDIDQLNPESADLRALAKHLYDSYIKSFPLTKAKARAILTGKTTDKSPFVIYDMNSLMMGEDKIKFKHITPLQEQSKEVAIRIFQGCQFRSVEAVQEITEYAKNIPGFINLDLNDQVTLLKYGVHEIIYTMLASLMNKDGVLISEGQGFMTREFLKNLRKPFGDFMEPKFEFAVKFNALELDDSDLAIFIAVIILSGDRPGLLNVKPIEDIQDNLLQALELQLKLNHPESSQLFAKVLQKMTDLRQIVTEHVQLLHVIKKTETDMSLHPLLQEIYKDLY
UniProt P37231: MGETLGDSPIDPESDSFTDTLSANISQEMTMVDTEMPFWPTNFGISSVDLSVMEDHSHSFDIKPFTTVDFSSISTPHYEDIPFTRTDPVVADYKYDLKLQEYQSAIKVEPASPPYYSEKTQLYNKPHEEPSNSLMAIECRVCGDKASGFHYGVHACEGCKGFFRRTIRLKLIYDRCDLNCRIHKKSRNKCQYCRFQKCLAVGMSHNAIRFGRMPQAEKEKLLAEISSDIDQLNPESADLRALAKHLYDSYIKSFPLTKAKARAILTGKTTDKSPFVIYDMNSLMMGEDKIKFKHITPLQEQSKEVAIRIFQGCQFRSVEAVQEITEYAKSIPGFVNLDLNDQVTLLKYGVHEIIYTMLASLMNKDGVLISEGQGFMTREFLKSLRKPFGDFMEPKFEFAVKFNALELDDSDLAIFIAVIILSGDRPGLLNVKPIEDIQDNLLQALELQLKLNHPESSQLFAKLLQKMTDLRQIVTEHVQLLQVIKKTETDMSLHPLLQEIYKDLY

[2] = biological target: T2, Flag-tagged WISP1 (Wnt1-inducible signaling pathway protein-1) (human) (UniProt O95388); test: co-IP; MEF cells transfected with 2 µg Flag-WISP1 and 2 µg PPARγ expression vectors for 24 hours; RIPA lysates; IP with anti-Flag or anti-PPARγ overnight, protein G Sepharose, washed five times with TNMG buffer (20 mM Tris-HCl pH 8, 150 mM NaCl, 5 mM MgCl2, 0.5% NP40, 10% glycerol); IB with anti-PPARγ or anti-Flag
T2 sequence: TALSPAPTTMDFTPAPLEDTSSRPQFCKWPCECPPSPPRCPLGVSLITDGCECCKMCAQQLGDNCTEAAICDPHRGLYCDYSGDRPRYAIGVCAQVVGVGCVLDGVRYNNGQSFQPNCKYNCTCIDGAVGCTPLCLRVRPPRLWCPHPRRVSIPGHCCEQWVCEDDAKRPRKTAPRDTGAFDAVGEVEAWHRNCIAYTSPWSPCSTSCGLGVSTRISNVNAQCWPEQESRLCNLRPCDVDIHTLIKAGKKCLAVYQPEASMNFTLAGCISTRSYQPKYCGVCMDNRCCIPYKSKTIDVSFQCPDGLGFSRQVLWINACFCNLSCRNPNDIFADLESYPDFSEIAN

endogenous PPARγ (from UniProt P37238 1-505)
binding [1]: binds

PPARγ (peroxisome proliferator-activated receptor γ), from expression vector (from UniProt P37231 1-505)
binding [2]: binds

— article PMC5431985
